Source: US20190358176A1, “METHODS OF SENSITIZING CANCER CELLS TO IMMUNE CELL KILLING” (University of Pittsburgh - of the Commonwealth System of …, priority 2017, published 2019)
At least one structure is not confirmed: it was looked up by name or label, or the drawing left a doubt.

How the values were obtained:
MDA-MB-231 cells = assay: Toxicity reversal (rescue from BCI-215 toxicity by MAPK inhibitors); type: cell-based, human; conditions: MAPK inhibitor pre-incubation, then BCI-215 25 μM, 24 hours
Description: Cells were pre-treated (30 min for SCH772984, SP600125, SB203580, and 3 hours for JNK-IN-8) with identical concentration gradients of MAPK inhibitors on the right and left halves of a 384 well microplate. After preincubation, half of the microplate was treated with vehicle (DMSO), the other with a pro-apoptotic concentration of BCI-215 (25 μM). To eliminate potential bias through plate/edge effects, an independent plate was prepared in parallel where vehicle and BCI-215 treatments were reversed. Twenty-four hours thereafter, plates were stained with Hoechst 33342, washed once, and imaged on the ArrayScan II using a 10× objective for analysis for cell numbers and nuclear morphology. Plates were subsequently immunostained with a cleaved caspase-3/Cy5-conjugated secondary antibody pair and analyzed for apoptosis on an ArrayScan VTI using a 20×0.75 NA objective. Four independent readouts were extracted and correlated: cell density (SelectedObjectCountPerValidField), nuclear condensation (MEAN_ObjectAvgIntenCh1), nucleus rounding (MEAN_ObjectShapeLWRCh1), and average cellular cleaved caspase-3 intensity (MEAN_AvgIntenCh2). For each parameter, data were normalized to vehicle (maximum rescue) and BCI-215 (no rescue) as % rescue=1−((data point−DMSO)/(DMSO-BCI-215))*100.

cellular MAPK activity = conditions: literature value; cited from earlier work

## Oc1c2ccccc2c2c3c(cccc13)N=N2 [SP600125]
MDA-MB-231 cells
  reversal of BCI-215-induced cell loss, nuclear morphology changes and apoptosis: partially reversed
Cellular MAPK activity
  published concentration reported to inhibit cellular MAPK activity: 10 µM
